In experiment [1] the target is PCF11 (termination factor), endogenous (human (endogenous in HeLa)) (UniProt O94913). The experiment is described as follows: co-IP; reciprocal immunoprecipitation of endogenous PCF11 and WNK1 from HeLa nuclear extracts; 150 mM or 250 mM NaCl; 150 mM NaCl after benzonase; mock IP with rabbit IgG; Western blot.
The target in experiment [2] is WNK1 (with no lysine [K] 1) kinase, endogenous (human (endogenous in HeLa)) (UniProt Q9H4A3). Described as above.

By UniProt entry, the sequences of proteins in these tests, tags left out. Where a name states a change or a piece, a line headed by the entry shows the natural chain unless it says otherwise.
UniProt O94913: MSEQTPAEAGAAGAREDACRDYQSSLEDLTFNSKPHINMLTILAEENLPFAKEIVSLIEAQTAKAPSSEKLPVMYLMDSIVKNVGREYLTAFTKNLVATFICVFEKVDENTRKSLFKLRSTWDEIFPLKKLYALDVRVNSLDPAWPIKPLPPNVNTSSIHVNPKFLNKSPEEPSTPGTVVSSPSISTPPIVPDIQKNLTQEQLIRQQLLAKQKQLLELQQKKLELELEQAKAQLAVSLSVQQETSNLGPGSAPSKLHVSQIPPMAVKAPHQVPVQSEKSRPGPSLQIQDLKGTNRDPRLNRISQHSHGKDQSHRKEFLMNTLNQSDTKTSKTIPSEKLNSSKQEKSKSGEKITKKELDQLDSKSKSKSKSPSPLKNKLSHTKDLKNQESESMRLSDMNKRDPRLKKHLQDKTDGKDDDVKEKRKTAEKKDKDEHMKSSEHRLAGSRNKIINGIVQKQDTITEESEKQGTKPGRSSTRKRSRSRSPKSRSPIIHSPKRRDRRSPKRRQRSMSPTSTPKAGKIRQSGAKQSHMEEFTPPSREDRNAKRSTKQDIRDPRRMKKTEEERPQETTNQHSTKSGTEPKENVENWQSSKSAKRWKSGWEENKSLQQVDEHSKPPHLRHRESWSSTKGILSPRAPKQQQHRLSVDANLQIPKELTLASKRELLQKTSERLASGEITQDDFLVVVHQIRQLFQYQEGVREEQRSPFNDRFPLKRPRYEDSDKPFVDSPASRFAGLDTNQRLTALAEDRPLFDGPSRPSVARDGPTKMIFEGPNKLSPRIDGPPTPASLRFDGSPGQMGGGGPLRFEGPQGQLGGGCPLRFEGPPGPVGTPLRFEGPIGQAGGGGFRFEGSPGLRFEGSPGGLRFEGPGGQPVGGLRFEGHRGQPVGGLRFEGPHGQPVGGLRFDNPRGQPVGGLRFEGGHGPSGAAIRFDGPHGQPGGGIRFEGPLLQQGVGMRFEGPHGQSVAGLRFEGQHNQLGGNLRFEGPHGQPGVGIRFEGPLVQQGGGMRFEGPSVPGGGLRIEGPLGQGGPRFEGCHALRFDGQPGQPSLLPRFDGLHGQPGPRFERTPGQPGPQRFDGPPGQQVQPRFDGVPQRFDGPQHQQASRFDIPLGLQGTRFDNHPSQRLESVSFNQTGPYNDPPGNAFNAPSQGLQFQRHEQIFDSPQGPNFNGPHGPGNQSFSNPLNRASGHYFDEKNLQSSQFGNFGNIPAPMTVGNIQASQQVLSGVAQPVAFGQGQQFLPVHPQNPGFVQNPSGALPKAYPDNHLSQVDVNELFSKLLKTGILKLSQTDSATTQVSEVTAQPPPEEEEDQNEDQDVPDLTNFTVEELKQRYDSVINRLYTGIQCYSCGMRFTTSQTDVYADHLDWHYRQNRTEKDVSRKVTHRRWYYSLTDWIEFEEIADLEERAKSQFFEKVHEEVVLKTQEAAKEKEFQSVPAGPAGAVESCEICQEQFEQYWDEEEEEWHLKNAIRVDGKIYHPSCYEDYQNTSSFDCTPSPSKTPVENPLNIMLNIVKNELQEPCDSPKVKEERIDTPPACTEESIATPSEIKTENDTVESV
UniProt Q9H4A3: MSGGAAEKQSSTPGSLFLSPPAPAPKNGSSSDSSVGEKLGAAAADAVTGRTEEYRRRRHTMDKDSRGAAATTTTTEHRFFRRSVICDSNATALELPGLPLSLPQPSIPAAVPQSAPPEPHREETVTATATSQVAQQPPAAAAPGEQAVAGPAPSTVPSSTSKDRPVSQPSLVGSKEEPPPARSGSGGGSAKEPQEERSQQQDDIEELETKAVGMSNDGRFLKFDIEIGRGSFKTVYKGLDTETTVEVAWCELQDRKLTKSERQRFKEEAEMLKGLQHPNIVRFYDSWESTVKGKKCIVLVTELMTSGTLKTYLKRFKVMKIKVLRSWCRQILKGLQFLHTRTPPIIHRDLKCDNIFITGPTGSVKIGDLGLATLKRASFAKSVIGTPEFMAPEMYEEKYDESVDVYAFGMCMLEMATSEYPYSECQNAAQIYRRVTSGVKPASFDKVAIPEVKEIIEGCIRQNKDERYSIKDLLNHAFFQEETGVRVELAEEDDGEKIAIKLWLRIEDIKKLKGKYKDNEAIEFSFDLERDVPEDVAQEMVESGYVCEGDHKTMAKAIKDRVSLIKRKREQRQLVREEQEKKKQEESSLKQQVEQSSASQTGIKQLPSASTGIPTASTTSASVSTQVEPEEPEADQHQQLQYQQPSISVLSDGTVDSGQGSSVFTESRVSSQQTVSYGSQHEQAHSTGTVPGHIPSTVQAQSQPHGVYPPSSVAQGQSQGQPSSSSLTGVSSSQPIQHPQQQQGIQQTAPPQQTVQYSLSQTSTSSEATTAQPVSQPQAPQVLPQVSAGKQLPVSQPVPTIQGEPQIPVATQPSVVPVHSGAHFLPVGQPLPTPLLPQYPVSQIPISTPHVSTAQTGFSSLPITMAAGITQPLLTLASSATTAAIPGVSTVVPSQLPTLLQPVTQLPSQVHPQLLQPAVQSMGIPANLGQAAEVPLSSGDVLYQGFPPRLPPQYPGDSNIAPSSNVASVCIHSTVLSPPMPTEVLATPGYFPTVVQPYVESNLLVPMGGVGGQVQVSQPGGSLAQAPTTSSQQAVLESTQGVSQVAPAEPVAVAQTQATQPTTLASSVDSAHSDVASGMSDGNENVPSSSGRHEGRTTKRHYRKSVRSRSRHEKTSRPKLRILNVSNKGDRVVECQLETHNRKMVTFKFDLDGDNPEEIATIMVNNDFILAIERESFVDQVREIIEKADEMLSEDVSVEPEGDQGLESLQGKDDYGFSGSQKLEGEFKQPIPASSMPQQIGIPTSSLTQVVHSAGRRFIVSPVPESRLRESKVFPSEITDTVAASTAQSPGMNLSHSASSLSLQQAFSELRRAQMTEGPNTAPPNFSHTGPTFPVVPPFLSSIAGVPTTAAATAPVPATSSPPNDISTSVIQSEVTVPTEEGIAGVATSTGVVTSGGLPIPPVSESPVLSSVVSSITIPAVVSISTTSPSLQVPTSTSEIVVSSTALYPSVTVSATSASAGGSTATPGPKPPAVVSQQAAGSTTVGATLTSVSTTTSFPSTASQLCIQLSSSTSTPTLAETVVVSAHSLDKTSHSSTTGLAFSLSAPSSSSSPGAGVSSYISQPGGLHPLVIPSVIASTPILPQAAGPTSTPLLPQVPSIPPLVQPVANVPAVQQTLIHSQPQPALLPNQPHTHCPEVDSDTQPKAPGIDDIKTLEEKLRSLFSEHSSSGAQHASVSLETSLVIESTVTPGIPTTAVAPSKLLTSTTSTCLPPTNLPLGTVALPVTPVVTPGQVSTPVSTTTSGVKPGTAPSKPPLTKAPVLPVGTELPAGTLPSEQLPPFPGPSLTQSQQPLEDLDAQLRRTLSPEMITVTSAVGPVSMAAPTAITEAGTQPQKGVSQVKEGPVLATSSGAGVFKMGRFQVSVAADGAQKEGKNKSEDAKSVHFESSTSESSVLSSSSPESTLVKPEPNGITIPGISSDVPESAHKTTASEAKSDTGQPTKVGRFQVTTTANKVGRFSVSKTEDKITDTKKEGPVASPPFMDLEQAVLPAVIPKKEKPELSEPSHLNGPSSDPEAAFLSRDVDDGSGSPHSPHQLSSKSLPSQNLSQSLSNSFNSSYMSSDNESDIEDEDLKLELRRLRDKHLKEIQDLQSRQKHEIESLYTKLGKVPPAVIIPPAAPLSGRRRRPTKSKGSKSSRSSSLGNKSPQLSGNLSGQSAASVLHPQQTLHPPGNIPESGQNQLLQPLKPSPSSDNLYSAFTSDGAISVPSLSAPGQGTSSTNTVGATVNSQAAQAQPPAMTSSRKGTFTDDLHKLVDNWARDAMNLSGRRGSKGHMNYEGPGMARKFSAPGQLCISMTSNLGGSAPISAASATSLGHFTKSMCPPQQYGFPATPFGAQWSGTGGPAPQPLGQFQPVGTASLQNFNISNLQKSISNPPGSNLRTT

No constants are given. Whether binding was seen depends on the method and setting. In cells and extracts the contact can be indirect. Some binding calls cover weakened binding; strength is not graded here.

In the case of “WNK1 (with no lysine [K] 1) kinase, endogenous (from UniProt Q9H4A3-1 1-2382) (enzyme)”, the binding result in experiment [1] is “binds weakly”. As to “PCF11 (termination factor), endogenous (from UniProt O94913 1-1555)”, the binding entry in experiment [2] was “binds weakly”.

These data come from publication PMC5749165.
